The text below walks through data of PubChem BioAssay AID2685 (National Center for Advancing Translational Sciences (NCATS), 2010).

This experiment in a line: qHTS Assay for Lipid Storage Modulators in Drosophila S3 Cells.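 On cell number change: cells counted by Cell Tracker Red CMTPX staining in the red channel.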 The conditions noted are these: BODIPY lipid droplet fluorescence, 18-24 h; for cell number change: measured here: cell count max response, cells fed with added oleic acid. In a few lines:
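Laser-scanning cytometry quantifies lipid droplet accumulation (500–530 nm total intensity; droplet/cell object ratio) in oleic acid-fed (400 uM added) Drosophila S3 cells treated with a concentration series. 20 uM Triacsin C defined 100% inhibition.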

Where [1] appears, read: measured here: lipid fluorescence (Fed channel) AC50, cells fed with added oleic acid.
Where [2] appears, read: measured here: cell number channel AC50, cells fed with added oleic acid.

The other results are listed elsewhere or left out. Further columns of the screen follow, without active or inactive calls. Most of these compounds were active or inconclusive in the main read-out, so they are no random draw. The note in brackets gives the kind of curve behind each potency; many fits are weak.

On to `CCCCC(=O)Nc1ccc2c3c(cccc13)C(=O)N2CC`, for which the cell number change is 43.4%. Moreover, under setting [1], the AC50 (as a rule, the concentration at which the activity in the assay is half-maximal) was 3.66 µM [rising, single point].
As for `CCCN(CCC)S(=O)(=O)c1cccc(-c2csc(C)n2)c1`, the cell number change was 8.96%. The concentration at half-maximal activity (AC50) under setting [2] is 1.16 µM [rising, partial curve, poor fit]. For the same compound, under setting [1], the AC50 was 0.13 µM [rising, full curve, poor fit].
Regarding `O=C(COC(=O)C1CCN(c2ccc(C(F)(F)F)cn2)CC1)Nc1cccc(F)c1`, the AC50 is 1.64 µM [rising, partial curve] under setting [2] and 2.06 µM [rising, partial curve] under setting [1].
On to `CCOC(=O)N1CCN(c2nc(-c3ccccc3)c3cc(C)ccc3n2)CC1`, for which the cell number change was determined as 4.17%. Besides, the AC50 under setting [1] is 29.1 µM [falling, single point].
Turning to `O=C(COCc1cc(-c2cccs2)on1)NC1CCCCC1`, the AC50 under setting [1] was 6.51 µM [rising, single point].
With `CCOc1ccc(C(=O)Nc2cc(NC(=O)c3ccc(OCC)c(Cl)c3)cc(C(=O)O)c2)cc1Cl`, the cell number change is -5.7%. Besides, the AC50 under setting [1] is 0.0731 µM [falling, full curve, poor fit].
As to `O=C(O)c1ccc(/C=N/NC(=O)C(O)(c2ccccc2)c2ccccc2)cc1`, the cell number change was -4.42%. Besides, under setting [1], the AC50 is 29.1 µM [rising, single point].
Consider `O=C(NCc1cccc(F)c1)c1ccc2nc(N3CCOCC3)sc2c1`, for which the cell number change turned out to be 21.9%.
Turning to `CCOC(=O)c1cccc(NC(=O)c2cccs2)c1`, the cell number change is -35.7%. The AC50 under setting [2] was 5.8 µM [falling, partial curve]. In addition, the half-maximal activity concentration (AC50) under setting [1] was 4.61 µM [rising, full curve, poor fit].
With `CCOc1ccc(Oc2ccccc2NC(=O)CSCC(=O)Nc2cc(C)on2)cc1`, the cell number change is 79.1%. Further, under setting [2], the half-maximal activity concentration (AC50) was 16.4 µM [rising, partial curve].
As to `CCOC(=O)C(C)Oc1c(C(=O)OC)sc2ncccc12` (configuration not stated), the cell number change was 14.7%. Further, the AC50 under setting [2] was 2.06 µM [rising, single point].
Turning to `NC(=O)NC(CC(=O)NCCc1ccccn1)c1ccccc1Cl` (configuration not stated), the cell number change was 2.78%. Moreover, the AC50 under setting [1] was 0.58 µM [rising, single point].
On to `Cc1cccc(NC(=O)CCC(=O)Nc2nnc(C(F)(F)F)s2)c1`, for which the cell number change was -0.645%. In addition, the half-maximal activity concentration (AC50) under setting [2] was 0.517 µM [falling, single point].
Consider `CC(O)CNc1nc2ccccc2n1CC(=O)N1CCN(Cc2ccccc2)CC1` (configuration not stated), for which the cell number change was -10.4%.
Still for that read-out and setting: with `Cc1ccc(CN2[C@@H](CC3CCCCC3)COCCS2(=O)=O)cc1` the figure was -22.3%.
`COc1ccc(/C=N/NC(=O)Cn2nnc3ccccc32)cc1OC`: the cell number change turned out to be 12.4%. In addition, the AC50 under setting [1] was 4.61 µM [rising, full curve].
On to `O=C(O)CSC1CC(=O)N(c2ccc(Br)cc2)C1=O` (configuration not stated), for which the AC50 under setting [1] was 0.58 µM [rising, single point].
As for `COc1ccc(N(C(C)C(=O)N/N=C/c2cccnc2)S(C)(=O)=O)cc1` (configuration not stated), the cell number change is -16.2%. Besides, under setting [1], the AC50 was 4.11 µM [falling, single point].
Consider `N#Cc1ccccc1Cn1c(=O)n(CCCC(=O)NCc2ccc3c(c2)OCO3)c(=O)c2ccccc21`, for which the AC50 under setting [1] was 0.082 µM [rising, full curve, poor fit].
In the case of `Cc1ccc(C(=O)Cn2c(C(=O)OCCO)cc3ccccc32)cc1`, the cell number change was -31.2%. Further, the AC50 under setting [2] was 4.61 µM [falling, partial curve]. Further, under setting [1], the AC50 is 6.51 µM [falling, single point].
Consider `COc1c(-c2ccccc2)oc2c(ccc3occc32)c1=O`, for which the cell number change turned out to be 20%. Besides, under setting [1], the AC50 was 10.3 µM [rising, partial curve, poor fit].
With `CC(=O)CCSc1ncnc2sc(-c3ccccc3)cc12`, the cell number change amounted to 24.9%.
In the case of `CCOC(=O)c1c(C)n(C)c2ccc(OCC(O)CN3CCCCCC3)cc12` (configuration not stated), the AC50 under setting [1] was 1.16 µM [rising, partial curve].
As for `Cc1ccc(NC(=O)N2CCCC2C(=O)NCC2CCCCC2)cc1` (configuration not stated), the cell number change was determined as 7.69%. Moreover, under setting [1], the AC50 was 5.17 µM [rising, single point].
Regarding `Cc1cc(Br)ccc1NC(=O)CN(C)C(=O)COc1cccc2c1OC(C)(C)C2`, the AC50 runs as follows: under setting [2], 0.731 µM [rising, partial curve, poor fit]; under setting [1], 3.26 µM [rising, partial curve, poor fit].
With `C=CCCCCCCCCC(=O)Nc1c[nH]c(=O)[nH]c1=O`, the cell number change is -14.7%. Moreover, the AC50 under setting [1] is 1.64 µM [falling, partial curve, poor fit].
As to `C[C@H](NC(=O)C1CC(=O)N(c2ccc3c(c2)OCCO3)C1)C(=O)N1CCCCC1` (some centres not stated), the cell number change is 2.64%.
Regarding `O=C(c1ccc2c(=O)n(-c3ccccc3)c(=S)[nH]c2c1)N1CCN(c2ccccc2)CC1`, the cell number change stood at 17.1%. In addition, the AC50 under setting [1] is 14.6 µM [falling, partial curve].
With `C=C(C)Cn1c(SCCCO)nc2c1c(=O)[nH]c(=O)n2C`, the cell number change was found to be 2.04%. Moreover, the AC50 under setting [1] is 5.8 µM [falling, full curve, poor fit].
`O=C(CNS(=O)(=O)c1ccc(F)cc1)N1CCOCC1`: the cell number change is -2.63%.
As for `O=C(Nc1ccccc1Oc1ccccc1)c1ccc(Br)o1`, the cell number change was 3.52%. In addition, the concentration at half-maximal activity (AC50) under setting [1] is 6.51 µM [rising, single point].
As to `c1ccc(COc2ccccc2CNc2nn[nH]n2)cc1`, the cell number change came to 2.55%. Also, under setting [2], the AC50 is 0.731 µM [rising, single point].
Turning to `Cc1ccc(Nc2nc(-c3ccc(C)cc3)c(CC(=O)O)s2)cc1`, the cell number change turned out to be 44.5%.
With `O=C(NCc1cccc(Cl)c1)N1CCN(S(=O)(=O)c2ccccc2F)CC1`, the cell number change was 20.3%. For the same compound, the AC50 under setting [2] was 0.731 µM [rising, full curve, poor fit].
For the compound `Clc1ccc(-[n+]2c(-c3cccc(Br)c3)[nH]c3nc4ccccc4nc32)cc1`, the cell number change was 28.7%. Also, under setting [1], the AC50 was 6.51 µM [rising, single point].
With `COc1ccc(-c2nc(SCC(=O)Nc3cccc(S(N)(=O)=O)c3)n[nH]2)cc1`, the cell number change is -10%.
Regarding `Cc1cccc(-n2ncc3c2CCCC3NC(=O)Cn2cccn2)c1C` (configuration not stated), the cell number change is -4.53%. Also, the AC50 under setting [1] was 0.58 µM [falling, full curve].
With `CCC(C)(C(=O)NC1CCCCC1)N(Cc1ccco1)C(=O)CNC(=O)c1ccccc1` (configuration not stated), the cell number change came to 40.5%. In addition, under setting [2], the concentration at half-maximal activity (AC50) was 5.8 µM [rising, single point]. Further, the half-maximal activity concentration (AC50) under setting [1] was 5.17 µM [rising, single point].
Turning to `O=C(O)COc1ccccc1/C=N/NC(=O)CSc1nc2ccccc2n1Cc1ccc(Cl)cc1`, the cell number change was 63.5%.
Take `Cc1nc(CN2CCOCC2)cc(=O)[nH]1`: the cell number change is -54.6%. Also, the concentration at half-maximal activity (AC50) under setting [2] was 29.1 µM [falling, single point]. In addition, the AC50 under setting [1] is 20.6 µM [falling, single point].
